± gives the standard deviation of the averaged measurements. Most entries show no effect beyond the scatter of the controls.
How the values were obtained:
Assay in all cases: level (log10 ratio to DMSO vehicle control); higher = higher biomarker level / cell amount than vehicle control
[1] = compound: C=CC(F)(F)C(F)(F)C(F)(F)C(F)(F)C(F)(F)C(F)(F)C(F)(F)C(F)(F)C=C [1,8-Divinylperfluorooctane]; conditions: in DMSO
Experimental: (§1)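 BioMAP Diversity Plus panel of 12 human primary cell co-culture systems (3C, 4H, LPS, SAg, BT, BF4T, BE3C, CASM3C, HDF3CGF, KF3CT, MyoF, Mphg). Compounds were added 1 h before stimulation and left for 24 h (MyoF 48 h; BT 72 h for soluble read-outs or 6 d for IgG). Biomarkers were read by ELISA, cytotoxicity by SRB, PBMC viability and proliferation by Alamar Blue. Each well value was divided by the mean of 8 DMSO control wells on the same plate and log10 transformed; duplicate blinded samples were tested at 4 concentrations.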

[2] = compound: FC(F)(F)C(F)(F)C(F)(F)CC1CO1 [1H,1H-Heptafluorobutyl epoxide]; conditions: 2200 nM; in DMSO
Experimental: as §1

[3] = compound: C=CC(=O)OCC(F)(F)C(F)(F)C(F)(F)C(F)(F)C(F)(F)C(F)(F)C(F)(F)F [1H,1H-Perfluorooctyl acrylate]; conditions: 2200 nM; in DMSO
Experimental: as §1

[4] = compound: CO[Si](C)(CCC(F)(F)C(F)(F)C(F)(F)C(F)(F)C(F)(F)C(F)(F)F)OC [Dimethoxymethyl((perfluorohexyl)ethyl)silane]; conditions: in DMSO
Experimental: as §1

[5] = compound: NC(=O)C(F)(F)C(F)(F)C(F)(F)C(F)F; conditions: in DMSO
Experimental: as §1

[6] = compound: COC(=O)C(F)(F)C(F)(F)OC(F)(C(F)(F)F)C(F)(F)OC(F)=C(F)F [Methyl perfluoro(3-(1-ethenyloxypropan-2-yloxy)propanoate)]; conditions: in DMSO
Experimental: as §1

[7] = compound: O=S(=O)(OCC(F)(F)F)C(F)(F)C(F)(F)C(F)(F)C(F)(F)F [2,2,2-Trifluoroethyl perfluorobutanesulfonate]; conditions: 2200 nM; in DMSO
Experimental: as §1

[8] = compound: OCCCCC(F)(F)C(F)(F)C(F)(F)C(F)(F)F [4:4 Fluorotelomer alcohol]; conditions: 2200 nM; in DMSO
Experimental: as §1

[9] = compound: O=S(=O)(O)C(F)(F)C(F)(F)C(F)(F)C(F)(F)C(F)(F)C(F)(F)C(F)(F)C(F)(F)F [Potassium perfluorooctanesulfonate]; conditions: 2200 nM; in DMSO
Experimental: as §1

[10] = compound: NS(=O)(=O)C(F)(F)C(F)(F)C(F)(F)C(F)(F)C(F)(F)C(F)(F)C(F)(F)C(F)(F)F [Perfluorooctanesulfonamide]; conditions: in DMSO
Experimental: as §1

[11] = compound: O=S(=O)(O)C(F)(F)C(F)(F)C(F)(F)C(F)(F)C(F)(F)C(F)(F)C(F)(F)C(F)(F)F [Perfluorooctanesulfonic acid]; conditions: 2200 nM; in DMSO
Experimental: as §1

[12] = compound: O=C(O)C(F)(F)C(F)(F)C(F)F [4H-Perfluorobutanoic acid]; conditions: in DMSO
Experimental: as §1

[13] = compound: O=P(O)(O)CCC(F)(F)C(F)(F)C(F)(F)C(F)(F)C(F)(F)C(F)(F)F [2-(Perfluorohexyl)ethylphosphonic acid]; conditions: 2200 nM; in DMSO
Experimental: as §1

[14] = compound: C=C(C)C(=O)OCC(F)(F)C(F)(F)C(F)(F)C(F)(F)C(F)(F)C(F)(F)C(F)(F)F; conditions: in DMSO
Experimental: as §1

Heptafluorobutyl iodide = compound: FC(F)(F)C(F)(F)C(F)(F)CI [Heptafluorobutyl iodide]; conditions: 2200 nM; in DMSO
Experimental: as §1

[15] = compound: O=S(=O)(F)C(F)(F)C(F)(F)C(F)(F)C(F)(F)C(F)(F)C(F)(F)C(F)(F)C(F)(F)F [Perfluorooctanesulfonyl fluoride]; conditions: 2200 nM; in DMSO
Experimental: as §1

Pentafluoropropionamide = compound: NC(=O)C(F)(F)C(F)(F)F [Pentafluoropropionamide]; conditions: 2200 nM; in DMSO
Experimental: as §1

[16] = compound: OCC(F)(F)C(F)(F)C(F)(F)C(F)(F)C(F)(F)C(F)F [1H,1H,7H-Dodecafluoro-1-heptanol]; conditions: 2200 nM; in DMSO
Experimental: as §1

lMphg:IL-1alpha
level (log10) ([1]; 740 nM): 0.035 ± 0.069
level (log10) ([1]; 2200 nM): -0.028 ± 0.011
level (log10) [2]: 0.0015 ± 0.03
level (log10) [3]: 0.013 ± 0.03
level (log10) ([4]; 740 nM): 0.006 ± 0.092
level (log10) ([4]; 2200 nM): -0.0275 ± 0.005
level (log10) ([5]; 2200 nM): 0.0345 ± 0.0078
level (log10) ([5]; 6700 nM): -0.0425 ± 0.023
level (log10) ([5]; 20000 nM): -0.0465 ± 0.00071
level (log10) ([5]; 60000 nM): 0.0365 ± 0.047
level (log10) ([6]; 740 nM): 0.0305 ± 0.026
level (log10) ([6]; 2200 nM): 0.0415 ± 0.029
level (log10) [7]: 0.0095 ± 0.0035
level (log10) [8]: 0.002 ± 0.0085
level (log10) [9]: -0.0105 ± 0.021
level (log10) ([10]; 2200 nM): 0.006 ± 0.044
level (log10) ([10]; 6700 nM): 0.053 ± 0.05
level (log10) ([10]; 20000 nM): 0.228 ± 0.028
level (log10) [11]: -0.0255 ± 0.013
level (log10) ([12]; 2200 nM): -0.035 ± 0.04
level (log10) ([12]; 6700 nM): -0.0055 ± 0.0064
level (log10) ([12]; 20000 nM): -0.0355 ± 0.0064
level (log10) ([12]; 60000 nM): 0.017 ± 0.035
level (log10) [13]: -0.016 ± 0.051
level (log10) ([14]; 740 nM): 0.0415 ± 0.028
level (log10) ([14]; 2200 nM): -0.024 ± 0.065
level (log10) (Heptafluorobutyl iodide): 0.0135 ± 0.06
level (log10) [15]: -0.0005 ± 0.021
level (log10) (Pentafluoropropionamide): 0.032 ± 0.078
level (log10) [16]: 0.0165 ± 0.016

SAg:CD69
level (log10) ([1]; 740 nM): -0.0145 ± 0.018
level (log10) ([1]; 2200 nM): -0.0205 ± 0.032
level (log10) [2]: 0.0335 ± 0.042
level (log10) [3]: -0.01
level (log10) ([4]; 740 nM): -0.0025 ± 0.0064
level (log10) ([4]; 2200 nM): -0.0225 ± 0.028
level (log10) ([5]; 2200 nM): 0.0275 ± 0.00071
level (log10) ([5]; 6700 nM): 0.025 ± 0.0085
level (log10) ([5]; 20000 nM): 0.0175 ± 0.005
level (log10) ([5]; 60000 nM): 0.0495 ± 0.026
level (log10) ([6]; 740 nM): -0.0215 ± 0.0064
level (log10) ([6]; 2200 nM): -0.049 ± 0.0057
level (log10) [7]: -0.0105 ± 0.0064
level (log10) [8]: 0.005 ± 0.0057
level (log10) [9]: -0.0525 ± 0.079
level (log10) ([10]; 2200 nM): 0.014 ± 0.024
level (log10) ([10]; 6700 nM): -0.0205 ± 0.06
level (log10) ([10]; 20000 nM): -0.119 ± 0.064
level (log10) [11]: -0.017 ± 0.014
level (log10) ([12]; 2200 nM): -0.0145 ± 0.0021
level (log10) ([12]; 6700 nM): -0.0145 ± 0.015
level (log10) ([12]; 20000 nM): -0.0165 ± 0.015
level (log10) ([12]; 60000 nM): 0.005 ± 0.027
level (log10) [13]: -0.002 ± 0.031
level (log10) ([14]; 740 nM): 0.008 ± 0.035
level (log10) ([14]; 2200 nM): 0.0025 ± 0.032
level (log10) (Heptafluorobutyl iodide): -0.0615 ± 0.03
level (log10) [15]: -0.008 ± 0.011
level (log10) (Pentafluoropropionamide): -0.018 ± 0.018
level (log10) [16]: 0.0235 ± 0.0064

BF4T:MMP-1
level (log10) ([1]; 740 nM): 0.0065 ± 0.013
level (log10) ([1]; 2200 nM): -0.002 ± 0.0085
level (log10) [2]: 0.0135 ± 0.0035
level (log10) [3]: 0.006 ± 0.0099
level (log10) ([4]; 740 nM): 0.015 ± 0.061
level (log10) ([4]; 2200 nM): -0.005 ± 0.047
level (log10) ([5]; 2200 nM): 0.0055 ± 0.022
level (log10) ([5]; 6700 nM): 0.003 ± 0.0085
level (log10) ([5]; 20000 nM): -0.003 ± 0.0085
level (log10) ([5]; 60000 nM): 0.0075 ± 0.0035
level (log10) ([6]; 740 nM): 0.006 ± 0.016
level (log10) ([6]; 2200 nM): -0.002 ± 0.0042
level (log10) [7]: 0.0045 ± 0.0035
level (log10) [8]: 0.013 ± 0.018
level (log10) [9]: 0.032 ± 0.03
level (log10) ([10]; 2200 nM): 0.008 ± 0.03
level (log10) ([10]; 6700 nM): 0.003 ± 0.016
level (log10) ([10]; 20000 nM): 0.0075 ± 0.019
level (log10) [11]: 0.0075 ± 0.0035
level (log10) ([12]; 2200 nM): -0.0025 ± 0.035
level (log10) ([12]; 6700 nM): -0.0075 ± 0.019
level (log10) ([12]; 20000 nM): 0 ± 0.034
level (log10) ([12]; 60000 nM): 0.006 ± 0.038
level (log10) [13]: 0.009 ± 0.024
level (log10) ([14]; 740 nM): 0.006 ± 0.024
level (log10) ([14]; 2200 nM): 0.001 ± 0.0057
level (log10) (Heptafluorobutyl iodide): 0.0065 ± 0.016
level (log10) [15]: 0.009 ± 0.0014
level (log10) (Pentafluoropropionamide): 0.005 ± 0.027
level (log10) [16]: 0.0195 ± 0.056

LPS:SRB
level (log10) ([1]; 740 nM): 0.012 ± 0.0042
level (log10) ([1]; 2200 nM): 0.0115 ± 0.0078
level (log10) [2]: 0.002 ± 0.0099
level (log10) [3]: -0.004 ± 0.014
level (log10) ([4]; 740 nM): 0.0055 ± 0.012
level (log10) ([4]; 2200 nM): 0.01 ± 0.024
level (log10) ([5]; 2200 nM): -0.0015 ± 0.0035
level (log10) ([5]; 6700 nM): -0.011 ± 0.0071
level (log10) ([5]; 20000 nM): -0.006 ± 0.0042
level (log10) ([5]; 60000 nM): -0.0105 ± 0.00071
level (log10) ([6]; 740 nM): -0.005 ± 0.014
level (log10) ([6]; 2200 nM): -0.003 ± 0.0071
level (log10) [7]: 0.006 ± 0.0014
level (log10) [8]: 0.013 ± 0.02
level (log10) [9]: -0.0055 ± 0.0021
level (log10) ([10]; 2200 nM): 0.015 ± 0.013
level (log10) ([10]; 6700 nM): 0.009 ± 0.0057
level (log10) ([10]; 20000 nM): -0.0625 ± 0.0078
level (log10) [11]: 0.003 ± 0.014
level (log10) ([12]; 2200 nM): -0.0045 ± 0.0078
level (log10) ([12]; 6700 nM): -0.0045 ± 0.0035
level (log10) ([12]; 20000 nM): -0.0105 ± 0.0092
level (log10) ([12]; 60000 nM): 0.003
level (log10) [13]: -0.002 ± 0.0071
level (log10) ([14]; 740 nM): 0.019 ± 0.0028
level (log10) ([14]; 2200 nM): 0.0095 ± 0.0092
level (log10) (Heptafluorobutyl iodide): 0.003 ± 0.0014
level (log10) [15]: -0.001 ± 0.011
level (log10) (Pentafluoropropionamide): 0.0105 ± 0.0021
level (log10) [16]: -0.004 ± 0.017

— the supplement of paper PMC10331698
